From PubChem BioAssay AID651640 (Broad Institute, 2012)
Several values for one entry are separate records, joined by “and”; a condition that tells them apart may be missing. Equal values may be shown once. About 6,000 (1.7%) of roughly 350,000 compounds were called active. Inconclusive results, whose numbers are uncertain, are shown with a selection of clear calls. Rule as the data show it: active = CPE inhibition above about 20% (passing the limit was not always enough); inconclusive = no clear call, values can overlap the other calls; tested in BHK-21 cells. A structure can be active in one record and inactive in another.

assay: protection of cells from dengue 2 killing – plate reader, single concentration, primary screen (AID 651640); details: DENV2-infected cells, cytopathic effect rescue, at 9.99 µM, stronger effect = higher value;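 also: 0% = median of neutral control wells and 100% = median of positive control wells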

Structure (SMILES) | CPE inhibition
CCCNC(=O)N1[C@H](C#N)[C@@H](c2ccc(-c3ccccc3F)cc2)[C@H]1CO | inconclusive: 22%
O=C(COC(=O)c1cc(S(=O)(=O)Nc2ccccc2Cl)ccc1O)Nc1ccc(F)c(F)c1F | inconclusive: 21.2%
CO[C@@H](CN(C)S(=O)(=O)c1ccc(C)cc1)[C@H](C)CN(C(=O)Nc1ccccc1F)[C@@H](C)CO | inconclusive: 26%
O=S(=O)(N[C@H]1CC[C@@H](CCNS(=O)(=O)c2ccccc2Cl)O[C@@H]1CO)c1ccccc1 | inconclusive: 31.7%
CCN1CCN(Cc2ccc(NC(=O)c3ccc(C)c(NC(=O)c4nccnc4N)c3)cc2C(F)(F)F)CC1 | inconclusive: 37.6%
C[C@@H]1CN([C@@H](C)CO)C(=O)c2cc(NC(=O)Nc3ccc(C(F)(F)F)cc3)ccc2O[C@@H]1CN(C)S(=O)(=O)c1ccc(Cl)cc1 | inconclusive: 21.6%
COc1cc(CN2C[C@@H](CO)O[C@@H](n3cnc4c(N5CCOCC5)ncnc43)C2)cc(OC)c1OC | inconclusive: 53%
CCOC(=O)n1c(=O)n(Cc2ccc(OC)cc2)c2ccccc21 | inconclusive: 21.2%
CCc1nc2c(OCCc3cccc(OC)c3)cccn2c1N(C)C(=O)c1ccc(C)cc1 | active: 35.1%
COc1ccc(C2NCCCC2c2ccccc2)cc1 (stereo unspecified) | inconclusive: 75.1%
CNC[C@@H]1Oc2ccc(NS(=O)(=O)c3ccc(Cl)cc3)cc2C(=O)N([C@H](C)CO)C[C@@H]1C | active: 39.2% and inactive: 1.93%
C[C@@H]1CCCCO[C@H](CN(C)Cc2ccncc2)[C@@H](C)CN([C@H](C)CO)C(=O)c2cc(NC(=O)C3CCCCC3)ccc2O1 | inconclusive: 86.9%
COc1cccc(NC(=O)C[C@@H]2CC[C@H]3[C@@H](COc4ccc(NC(=O)c5ccccc5F)cc4C(=O)N3C)O2)c1 | inconclusive: 37.9%
Cc1cc(C(=O)COc2ccc(Br)cc2F)c(C)n1CC1CCCO1 (stereo unspecified) | inconclusive: 20.7%
C[C@@H](O)C#Cc1ccc([C@H]2[C@H](CO)N3CCCCN(S(=O)(=O)Cc4ccccc4)C[C@@H]23)cc1 | inactive: -5.9%
Cc1c(C(=O)Nc2ccccn2)oc2ccc(Br)cc12 | inconclusive: 38.6%
O=C(CN1CCC(c2nc3ccccc3s2)CC1)N1CCCCC1 | inactive: 19.9%
CC(C)=CCc1cc([C@@H]2COc3c(ccc4c3C=CC(C)(C)O4)C2)c(O)cc1O | inconclusive: 21.2%
Cc1nc2ccc(C(=O)N3CCN(C(=O)c4ccco4)CC3)cn2c1N(C)C(=O)CCc1ccccc1 | inconclusive: 36.4%
CC(C)(C)c1ccc(C(=O)OCC(=O)N2CCC(c3ccccc3)=N2)cc1 | inactive: 2.2%
C[C@@H]1CN([C@@H](C)CO)C(=O)c2cc(C#CCN(C)C)cnc2O[C@@H]1CN(C)S(=O)(=O)c1cn(C)cn1 | inconclusive: 40.2%
CS(=O)(=O)N1[C@H](C(=O)NC2CCC2)[C@@H](CO)[C@@H]2Cn3c(ccc(-c4ccccc4)c3=O)[C@@H]21 | inactive: -2.33%
O=C(CC(F)(F)F)N1C[C@@H]2[C@H](c3ccccc31)[C@H](CO)N2C(=O)C1CCCC1 | active: 21%
C[C@@H]1CN([C@@H](C)CO)C(=O)c2cccc(NC(=O)NC3CCCCC3)c2O[C@H]1CN(C)Cc1ccc(C(F)(F)F)cc1 | inactive: 7.53%

By substructure: the compounds so far containing bromine.
Structure (SMILES) | CPE inhibition
Cc1cc(C(=O)COc2ccc(Br)cc2F)c(C)n1CC1CCCO1 (stereo unspecified) | inconclusive: 20.7%
Cc1c(C(=O)Nc2ccccn2)oc2ccc(Br)cc12 | inconclusive: 38.6%

Continuation:

Structure (SMILES) | CPE inhibition
OCCCCCCNc1ccc(CCO)cc1 | inconclusive: 28.3%
C[C@H](CO)N1C[C@H](C)[C@H](CN(C)C(=O)Nc2ccc(-c3ccccc3)cc2)OCc2ccccc2-c2c(n(C)c3ccccc23)C1=O | active: 88.1%
Cc1ccc(NS(=O)(=O)c2ccc3c(c2)CCC(=O)N3)cc1 | inconclusive: 29.4%
CCC(=O)Nc1cc(C(=O)OCc2ccc(C(=O)Oc3ccccc3)cc2)ccc1C | active: 82%
Cc1ccc(-c2cnc3c(c2)C(=O)N([C@@H](C)CO)C[C@H](C)[C@@H](CN(C)S(C)(=O)=O)O3)cc1 | inconclusive: 28%
O=C1Nc2ccccc2Nc2ccccc21 | inconclusive: 20.2%
CCN(Cc1ccccc1)C(=O)c1cc(S(=O)(=O)N2CCOCC2)cn1C | inconclusive: 32.2%
O=C1C2=C(CCCC2)C(=O)N1c1cccc(OCCBr)c1 | inconclusive: 24.6%
C[C@@H]1CCCCO[C@H](CN(C)C(=O)C2CCCCC2)[C@H](C)CN([C@H](C)CO)C(=O)c2cc(NC(=O)NC3CCCCC3)ccc2O1 | inactive: -5.32%
CCC(=O)N1CCC2(CC1)CN[C@H](CO)c1c2c2ccc(OC)cc2n1C | inactive: 3.57%
Cc1noc(C)c1NC(=O)Nc1ccc2c(c1)C(=O)N([C@H](C)CO)C[C@H](C)[C@@H](CN(C)Cc1ccc3c(c1)OCO3)O2 | inconclusive: 38.6%
COCCn1c(SCc2ccc(OC)c(F)c2)nnc1-c1ccncc1 | inactive: 1.69%
CC(C)NC(=O)N(C)C[C@@H]1OCCCC[C@H](C)Oc2ccc(NC(=O)Nc3ccc(C(F)(F)F)cc3)cc2C(=O)N([C@H](C)CO)C[C@@H]1C | inconclusive: 26.1%
CCCN1C[C@@H](C)[C@@H](OC)CN(C)C(=O)c2cc(NC(=O)C3CC3)ccc2OC[C@H]1C | inactive: 16.7%
C[C@H](CO)N1C[C@H](C)[C@@H](CN(C)Cc2cncnc2)Oc2ncc(-c3ccc(C#N)cc3)cc2C1=O | inconclusive: 22.2%
CCN(CC)C(=O)c1cn(CCC#N)nc1-c1ccc2ccccc2c1 | inactive: -3.61%
COc1ccc(NC(=O)Nc2ccc3c(c2)C(=O)N([C@@H](C)CO)C[C@@H](C)[C@H](CN(C)C(=O)Nc2ccccc2)O3)cc1 | inactive: 2.71%
CCc1ccc(-c2cn3c(n2)SCC3)cc1 | inactive: 12.4%
Cc1cc(C)n(CCC(=O)N/N=C/c2ccccc2O)n1 | inconclusive: 32.2%
C[C@@H]1CN([C@H](C)CO)S(=O)(=O)c2ccc(-c3cccnc3)cc2O[C@@H]1CN(C)Cc1cncnc1 | inactive: 19.2%
CCCC#Cc1ccc([C@H]2[C@@H](CO)N3C(=O)CN(C(=O)Nc4ccccc4F)C[C@H]23)cc1 | inconclusive: 25.2%
COc1ccc(N2CC(C(=O)N3CCc4ccccc43)CC2=O)cc1 (stereo unspecified) | inconclusive: 29.2%
C=CCN=c1scc(-c2ccccc2)n1/N=C/c1ccccn1 | inconclusive: 29.5%
CCCOc1ccccc1NS(=O)(=O)c1ccc2[nH]c(=O)[nH]c2c1 | inactive: 1.65%

Molecules above that contain a furan ring, fused or not:
Structure (SMILES) | CPE inhibition
Cc1c(C(=O)Nc2ccccn2)oc2ccc(Br)cc12 | inconclusive: 38.6%
Cc1nc2ccc(C(=O)N3CCN(C(=O)c4ccco4)CC3)cn2c1N(C)C(=O)CCc1ccccc1 | inconclusive: 36.4%

Next results follow:

Structure (SMILES) | CPE inhibition
C[C@@H]1CN([C@H](C)CO)C(=O)c2cc(NS(=O)(=O)c3ccccc3)ccc2O[C@@H]1CN(C)C(=O)NC1CCCCC1 | inactive: -1.15%
C[C@@H]1CN([C@@H](C)CO)C(=O)c2cccc(NC(=O)Nc3ccc(C(F)(F)F)cc3)c2O[C@@H]1CN(C)C(=O)Nc1cccc2ccccc12 | inconclusive: 36.8%
N#Cc1cccc(-c2ccc3c(c2)[C@H]2[C@H](CCN2Cc2ccncc2)[C@H](CO)N3)c1 | active: 50.2%
O=C(CCC(=O)N1CCc2ccccc2C1)NCCc1ccc(Cl)cc1 | inconclusive: 20%
C[C@H]1CN([C@@H](C)CO)C(=O)Cc2cc(NC(=O)NC3CCCCC3)ccc2O[C@@H]1CN(C)C(=O)Nc1ccc(F)cc1 | inactive: 0.87%
Cc1cc(F)ccc1-c1cc(C(=O)NCc2ccco2)[nH]n1 | active: 57.2%
O=C(O)[C@]1(S(=O)(=O)c2ccccc2)C[C@@H]2ON=C(c3cccc(Br)c3)[C@@H]2C1 | active: 24.8%
CC(C)(C)NC(=S)NNC(=O)c1ccncc1 | inconclusive: 77%
CCOc1ccc(CCNC(=O)CSc2nn(-c3ccc(C)c(Cl)c3)c(=S)s2)cc1OCC | inconclusive: 25.6%
O=C(Nc1ccc(C(=O)NCc2ccccc2Cl)cc1)C1=CSCCO1 | inconclusive: 28.9%
Cc1ccc(S(=O)(=O)N2CCCN(C(=O)c3ccc(-n4nccc4C)cc3)CC2)cc1 | inactive: -4.95%
Cc1ccc(C)c(OCCC(=O)OCC(=O)NC(=O)NC2CCCCC2)c1 | inconclusive: 54%
CC(C)C(=O)NNc1ccc(C(F)(F)F)cn1 | inconclusive: 37.6%
Cc1noc(C)c1S(=O)(=O)N(C)C[C@@H]1OCCCC[C@@H](C)Oc2ccc(NC(=O)Cc3ccccc3)cc2C(=O)N([C@@H](C)CO)C[C@@H]1C | active: 52.3%
COc1ccc(CCNC(=O)C2CC(c3cc(C(F)(F)F)cc(C(F)(F)F)c3)=NO2)cc1 (stereo unspecified) | inconclusive: 20.1%
Nc1nnc(SCC(=O)Nc2ccc(N3CCOCC3)c(Cl)c2)s1 | inactive: 10.2%
Cc1ccc([C@@H]2CC=C(C(=O)O)[C@H](c3ccc(Br)cc3)N2S(=O)(=O)c2ccccc2C)cc1 | active: 28.3%
COc1ccc(CN(C)C[C@@H]2Oc3ccc(NC(=O)NC4CCCCC4)cc3CC(=O)N([C@H](C)CO)C[C@@H]2C)cc1 | inactive: 0.361%
O=C(N=C1SC2CS(=O)(=O)CC2N1Cc1ccc(Cl)cc1)C1CC1 (stereo unspecified) | inconclusive: 20.7%
Fc1ccc(-c2csc(-c3ccc(C4SCCS4)cc3)n2)cc1F | active: 38.4%
C[C@@H]1CCCCO[C@H](CN(C)C(=O)CCC(F)(F)F)[C@H](C)CN([C@H](C)CO)C(=O)c2cc(NS(=O)(=O)c3cccs3)ccc2O1 | inconclusive: 68.8%
Cc1noc(C)c1S(=O)(=O)Nc1ccc2c(c1)C(=O)N([C@@H](C)CO)C[C@@H](C)[C@@H](CN(C)C(=O)Nc1ccccc1)OCCCC[C@@H](C)O2 | active: 95.5%
CC(C)NC(=S)N1CCn2c(nc3ccccc32)C1 | inconclusive: 56.7%
